Source: PubChem BioAssay AID1671190 (National Center for Advancing Translational Sciences (NCATS), 2021)
Among all 580,000 compounds or so, about 6,100 (1.1%) were called active. This list was built around the results that the source calls inconclusive (neither active nor inactive); the mix of calls is not that of the screen. The call rests on the fitted dose curve; in most records, active means well fitted inhibition curve with a large enough effect; inconclusive means small, poorly fitted or top-dose-only effect, or another doubt; inactive means no such curve, though single readings can be large or run the other way. A potency beside an inconclusive call is a rough fit, not a confirmed value.

Protein sequences, listed by entry. Tags and fused reporters are not part of them.
UniProt P18054, whole entry, looked up: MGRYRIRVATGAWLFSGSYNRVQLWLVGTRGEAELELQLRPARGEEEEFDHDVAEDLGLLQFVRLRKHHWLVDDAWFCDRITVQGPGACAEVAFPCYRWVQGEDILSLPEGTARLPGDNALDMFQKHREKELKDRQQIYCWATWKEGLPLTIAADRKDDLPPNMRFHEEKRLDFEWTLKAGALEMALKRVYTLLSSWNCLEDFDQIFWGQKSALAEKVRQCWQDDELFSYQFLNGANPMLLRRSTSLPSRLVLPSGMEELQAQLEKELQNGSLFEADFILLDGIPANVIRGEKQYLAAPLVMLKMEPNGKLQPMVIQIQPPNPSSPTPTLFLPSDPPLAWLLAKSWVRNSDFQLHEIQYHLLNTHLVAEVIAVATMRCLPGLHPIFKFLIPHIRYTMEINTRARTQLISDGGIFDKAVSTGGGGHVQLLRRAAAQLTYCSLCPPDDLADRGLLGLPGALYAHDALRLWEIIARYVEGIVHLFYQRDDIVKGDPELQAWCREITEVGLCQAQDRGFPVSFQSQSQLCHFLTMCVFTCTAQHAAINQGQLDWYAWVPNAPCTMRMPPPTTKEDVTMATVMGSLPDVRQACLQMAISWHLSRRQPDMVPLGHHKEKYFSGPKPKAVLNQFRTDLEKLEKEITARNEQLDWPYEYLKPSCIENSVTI

Molecular target: Polyunsaturated fatty acid lipoxygenase ALOX12 (Homo sapiens) (UniProt P18054)
Assay: Primary qHTS assay for inhibitors of human arachidonate 12S-lipoxygenase (ALOX12): Round 2
Details: purified 12hLO, xylenol orange hydroperoxide absorbance; activity change, negative = inhibition: at 108 µM (top of the series) unless noted
Outline: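 Hydroperoxide product was detected by ferrous iron/xylenol orange as the 573 to 405 nm absorbance ratio. Arachidonic acid at 40 uM (final) was turned over for 30 min at room temperature by 150 nM human 12hLO, pH 7.0 Hepes buffer, after 15 min compound preincubation.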
On the % scale 0 is the no-effect control and ±100 the full control effect; potency means the concentration at half of the fitted maximal effect.

Compound | Potency | activity change, negative = inhibition
CCCn1cc(SCC(=O)Nc2cccc(C)c2)c2ccccc21 | inconclusive: 112 µM [inhibitor, single point] | –
Cc1ccc(C2=CC(=O)N(CCC(N)=O)C2)cc1 | inconclusive: 7.08 µM [inhibitor, single point] | –
Cc1nc(NC(C)C)c2oc3ccccc3c2n1 | inconclusive: 35.5 µM [inhibitor, partial curve, poor fit] | –
C=CC[C@@H](Cc1ccc(F)cc1)C(=O)OC[C@H]1CCCN1C(=O)[C@@H](CC=C)CC(=O)N(CCO)Cc1ccccc1 | – | inactive: 6.01%
C=CCNc1cc(=O)n(Cc2ccccc2)c(=O)[nH]1 | inconclusive: 112 µM [inhibitor, single point] | –
COc1cccc(NC(=O)N(CCCN2CCOCC2)C(C)c2cc3cccc(OC)c3o2)c1 (stereo not drawn) | inconclusive: 100 µM [inhibitor, single point] | –
Cc1ccc(C(=O)/C=C/Nc2cccc(O)c2)cc1 | inconclusive: 10 µM [inhibitor, partial curve, poor fit] | –
O=C(Cc1ccsc1)OCC(=O)c1ccc2c(c1)OCCO2 | inconclusive: 31.6 µM [inhibitor, single point] | –
CCCCCN(C(=O)CCC(=O)OCc1ccc(C(C)C)cc1)c1c(N)n(CCCC)c(=O)[nH]c1=O | – | inactive: 0.213%
Cc1ccc2nc(-c3ccc(Br)cc3)cn2c1 | inconclusive: 1 µM [inhibitor, full curve, poor fit] | –
O=C(N/N=C/c1ccc(O)c(O)c1)c1cccc(S(=O)(=O)N2CCCC2)c1 | inconclusive: 22.4 µM [inhibitor, partial curve, poor fit] | –
Cc1cc(F)ccc1S(=O)(=O)N1CCCCC1CCNC(=O)C(=O)NCc1ccccn1 (stereo not drawn) | – | inactive: 0.261%
COc1ccccc1NCC(=O)c1ccc(C)c(C)c1 | active: 15.8 µM | –
O=C(c1cc(-c2ccc(F)cc2)nc2ccccc12)N1CCN(C2CCS(=O)(=O)C2)CC1 (stereo not drawn) | inconclusive: 44.7 µM [inhibitor, partial curve, poor fit] | –
CCOC(=O)c1[nH]c2ccc(OC)cc2c1NC(=O)CCN1CCN(Cc2ccccc2)CC1 | inconclusive: 35.5 µM [inhibitor, single point] | –
CSc1nc(N)nc2c1ncn2CC(=O)NCCCc1ccccc1 | – | inactive: 1.64%
COc1cc(C(=O)NNC(=S)NC(=O)c2ccc(F)cc2)cc(OC)c1OC | inconclusive: 89.1 µM [inhibitor, single point] | –
CCN(CC)C(=O)C1CCCN(Cc2ccc(N(C)C)cc2)C1 (stereo not drawn) | – | inactive: -4.78%
CC1(C(=O)Nc2ccc3ccccc3c2)CCC(=O)N1CCc1c[nH]c2ccccc12 (stereo not drawn) | inconclusive: 141 µM [inhibitor, single point] | –
Clc1cccc(Cc2c(-c3cccc(Br)c3)nc3ccc(Cl)cn23)c1 | inconclusive: 31.6 µM [inhibitor, partial curve] | –
CCN1C=C(C(=O)OC)C(c2cccc(OC)c2OC)C(C(=O)OC)=C1 | – | inactive: -6.09%
CC(=O)Nc1cc(-c2cccc(N)c2)cn2c(-c3ccc(C(C)=O)cc3)cnc12 | inconclusive: 39.8 µM [inhibitor, partial curve, poor fit] | –
Cc1cc(NS(=O)(=O)c2ccc(NC(=S)NC(=O)c3cccnc3)cc2)no1 | inconclusive: 39.8 µM [inhibitor, partial curve] | –

Compound | Potency | activity change, negative = inhibition
Cc1cc(C)c(S(=O)(=O)N2CCN(c3ccc(N4CCCCC4)nn3)CC2)cc1C | inconclusive: 44.7 µM [inhibitor, partial curve, poor fit] | –
O=C(Nc1ccc2c(c1)OCCO2)c1cc2sccc2n1Cc1ccc(F)cc1 | – | inactive: 0% [at 57.4 µM]
c1ccc(Nc2cccc3ccccc23)cc1 | inconclusive: 126 µM [inhibitor, single point] | –
C#CCOCCOCCOCCNc1nc(N2CCN(C(=O)[C@H]([C@@H](C)CC)n3cc([C@@H](N)CC(C)C)nn3)CC2)nc(N2CCN(C(=O)[C@H](Cc3ccc(O)cc3)n3cc([C@@H](N)CC(C)C)nn3)CC2)n1 | inconclusive: 2 µM [inhibitor, full curve, poor fit] | –
Cc1ccc(-c2cc(C(=O)N/N=C/c3ccc(F)cc3)n[nH]2)o1 | – | inactive: 6.3%
N#Cc1ccc(/C=C(\C(=O)C(=O)O)c2ccc3ccccc3n2)cc1 | inconclusive: 44.7 µM [inhibitor, partial curve, poor fit] | –
Cc1ccccc1C(=O)N1CCCC(N2CCN(Cc3ccc4c(c3)OCO4)CC2)C1 (stereo not drawn) | inconclusive: 31.6 µM [inhibitor, partial curve, poor fit] | –
CCN1C(=O)/C(=C/C=C2/CCCN2C)OC1=S | inconclusive: 50.1 µM [inhibitor, partial curve, poor fit] | –
CC1(c2nnnn2Cc2ccccc2)CCC(=O)N1Cc1cccnc1 (stereo not drawn) | inconclusive: 44.7 µM [inhibitor, single point] | –
Cc1nnc(SCC(=O)Nc2sc3c(c2C(=O)c2ccccc2)CCCC3)s1 | inconclusive: 8.91 µM [inhibitor, partial curve, poor fit] | –
COc1ccc(Nc2c3c(nc4ccc(NC(=O)c5cc(Cl)ccc5OC)cc24)CCCC3)cc1OC | – | inactive: -34.3%
COc1ccccc1-c1nc2cnccn2c1NCCC(=O)Nc1ccc2c(c1)OCO2 | inconclusive: 89.1 µM [inhibitor, single point] | –
O=C(Nc1ccc(Cl)c(Cl)c1)c1ccc2ccccc2n1 | inconclusive: 3.98 µM [inhibitor, full curve] | –
Nc1cccc(CN2CCCC2)c1 | – | inactive: -0.298%
O=C(Nc1nc(-c2ccco2)c(-c2ccco2)s1)C1CC(=O)N(c2ccc3c(c2)OCCO3)C1 (stereo not drawn) | inconclusive: 31.6 µM [inhibitor, partial curve] | –
COc1ccc(-c2nnc(SCC(=O)NCc3ccco3)o2)cc1 | – | inactive: -19.9%
N#Cc1ccc(Oc2cccc(C(=O)OCC(=O)c3ccccc3)c2)cc1C#N | – | inactive: -22.9%
CCCn1c(=O)[nH]c(=O)c2c1nc(-c1cccc(OC)c1OC)n2CCN1CCOCC1 | inconclusive: 12.6 µM [inhibitor, partial curve, poor fit] | –
CCOCCOC1CCN(C(=O)NCCc2ccccc2)CC1 | – | inactive: 50%
CCn1nc(-c2ccccc2)c(-c2ccccc2)c(C(=O)Nc2nc(C)c(C(C)=O)s2)c1=O | – | inactive: -8.26%
CCCCNc1nc(CC)c2c(c1C#N)CCCC2 | – | inactive: 316%
CC(=O)c1ccc(NC(=O)Cc2c(C)c3ccc(O)cc3oc2=O)cc1 | – | inactive: -7.82%
N#Cc1c(Oc2ccccc2)cc(Oc2ccccc2)cc1SCc1ccccc1 | – | inactive: 3.86%

Compound | Potency | activity change, negative = inhibition
CCOC(=O)CNc1ccc2c(c1)OCO2 | inconclusive: 44.7 µM [inhibitor, partial curve, poor fit] | –
Cn1c(-c2ccc(Br)cc2)cnc1NCc1cccnc1 | inconclusive: 0.447 µM [inhibitor, full curve, poor fit] | –
CCCn1c(=S)[nH]c2cc(Cl)ccc21 | inconclusive: 35.5 µM [inhibitor, partial curve, poor fit] | –
COC(=O)c1ccc(C[n+]2ccccc2)cc1 | – | inactive: -27.4%
Cc1ccc(NC(=O)CSc2nc(=O)n(Cc3ccco3)c3c2CCC3)cc1F | inconclusive: 100 µM [inhibitor, partial curve, poor fit] | –
CC/C(=N/Nc1ccccc1)c1cnnc(SC)n1 | inconclusive: 35.5 µM [inhibitor, partial curve, poor fit] | –
Cn1cc(S(=O)(=O)N2CCC(C(=O)Nc3ccccc3OC(F)F)CC2)cc1C(N)=O | – | inactive: -3.77%
COc1ccc(NC(=O)N2CCCC(Cn3c(C4CC4)nc4cccnc43)C2)cc1Cl (stereo not drawn) | inconclusive: 39.8 µM [inhibitor, full curve, poor fit] | –
O=C(Nc1sc2c(c1C(=O)Nc1cccc(Cl)c1)CCCC2)c1cccs1 | active: 44.7 µM | –
CC(=O)OC(C(=O)Nc1ccccc1)C(C)S(=O)(=O)c1ccccc1 (stereo not drawn) | inconclusive: 89.1 µM [inhibitor, single point] | –
O=C(c1ccc(Cl)s1)N(Cc1cccnc1)c1nc2c(F)cc(F)cc2s1 | inconclusive: 35.5 µM [inhibitor, single point] | –
NC(=O)COc1ccc2cc(-c3ccc(F)cc3)c(=O)oc2c1 | – | inactive: 36.6%
COc1ccc(NS(=O)(=O)c2ccc(-c3cnc(C)o3)cc2)c(OC)c1 | – | inactive: 22.4%
C[N+]12CCCCC1[C@@H](CO)CCC2 (stereo partly drawn) | inconclusive: 56.2 µM [inhibitor, partial curve, poor fit] | –
O=C(CSc1ncn(-c2ccccc2)n1)Nc1nc2ccccc2s1 | inconclusive: 17.8 µM [inhibitor, full curve, poor fit] | –
Cc1ccc(F)cc1CNC(=O)c1cc(COc2ccc3ncccc3c2)on1 | – | inactive: 14.3%
Cc1ccc(CC(S)C(=O)O)cc1C (stereo not drawn) | inconclusive: 25.1 µM [inhibitor, partial curve, poor fit] | –
S=c1[nH]nc(-c2ccco2)n1-c1cccc2ccccc12 | inconclusive: 14.1 µM [inhibitor, partial curve, poor fit] | –
CC(=O)Nc1cccc(/C(C)=N\NC(=O)c2ccc(Cn3nc([N+](=O)[O-])c(Cl)c3C)o2)c1 | – | inactive: -6.56%
CO[C@@H]1CN(C)C(=O)c2cc(NC(=O)Nc3ccc(Cl)cc3)ccc2OC[C@H](C)NC[C@H]1C | inconclusive: 100 µM [inhibitor, single point] | –
Oc1ccc(C[C@@H]2CNCCN2CCCCC2CCCCC2)cc1 | inconclusive: 50.1 µM [inhibitor, partial curve, poor fit] | –
CC1(C(=O)NCc2ccc3c(c2)OCO3)CCN1C(=O)Cc1cccc2ccccc12 (stereo not drawn) | inconclusive: 112 µM [inhibitor, single point] | –

Of the compounds above, these contain a COOH group.
Compound | Potency | activity change, negative = inhibition
N#Cc1ccc(/C=C(\C(=O)C(=O)O)c2ccc3ccccc3n2)cc1 | inconclusive: 44.7 µM [inhibitor, partial curve, poor fit] | –
Cc1ccc(CC(S)C(=O)O)cc1C (stereo not drawn) | inconclusive: 25.1 µM [inhibitor, partial curve, poor fit] | –
